PubChem BioAssay AID1347423 (Functional Genomics Laboratory (NCATS/FGL), 2020)
Screen size: about 52,000 sequences; about 210 (0.4%) were called active.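 How the source made its calls: active means gene whose silencing raises cell survival under the drug, median off-target-corrected z-score across its silencing RNAs 2 or more; inactive means the rest.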 This is one part of the list.

Assay: Resistance to Poly (ADP-Ribose) Polymerase inhibitor: Gene Identification via Genome-wide siRNA Screen
Details: mouse BRCA2 R2336H ES cells, olaparib, CellTiter-Glo viability; hits give high values
Procedure, shortened: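 Mouse BRCA2 R2336H ES cells were reverse-transfected with siRNA (20 nM final), treated at 48 h with 500 nM olaparib, and read by CellTiter-Glo after 72 h. Scores: MAD-based z per siRNA, median per gene, seed off-target correction.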
In the case of GCCUGGACCUUAAUUACUUTT against Ptpn14, the z-score is reported as inactive: -0.611.
In the case of GGAUUUUUGACUGUGAUUCTT against Pak1ip1, the z-score is reported as inactive: -0.0929.
For “GCACAACACGGCUAAACCUTT against 2810443J12Rik”, the z-score was inactive: -0.775.
For “CCCUUGUCCAGUGUGAGUUTT against 4732495E13Rik”, the z-score was inactive: -0.506.
With “GGUAAAGUGAACUGUACCUTT against 2200002K05Rik” the z-score was inactive: 0.85.
With GCUUCGUUACGACGAUGAGTT against Ndufs3 the z-score was inactive: 0.701.
For GGCAAAAUCUCCUCUAUCUTT against Olfr905, the z-score was inactive: -0.797.
In the case of “GGCUCCUCUACACAGGCAATT against 2310043K02Rik”, the z-score is reported as inactive: -1.31.
For GGAUGACGAUUGUUUAUCATT against Bcl11a, the z-score was inactive: 0.887.
For “GCCACUACUAAUAGCAUGUTT against 5330438I03Rik”, the z-score was inactive: 0.24.
With GGUGAAAUGAGAAUACUUGTT against Arts1 the z-score was inactive: 0.305.
With AAUGUAGUCAAAUCAAAGATT against Sprr2a the z-score was inactive: -0.521.
With GACGAUCAAGAUAUGAUGGTT against Olfr196 the z-score was inactive: 0.926.
In the case of GGGCUCUUUGAUAAUCACUTT against Dnajb11, the z-score is reported as inactive: 0.318.
In the case of GGAACACAGAAGUGAAAAATT against Olfr1260, the z-score is reported as inactive: -1.44.
In the case of GGUGACCUGUUCAGAACAUTT against Timm10, the z-score is reported as inactive: -0.88.
In the case of GCUACAAGUGAUCGUCAAUTT against Schip1, the z-score is reported as inactive: 1.01.
For GCGGGUUAACUUGUUUGGUTT against Gm1053, the z-score was inactive: 0.891.
With GGGUUUCAGAACUGAGUUATT against Saa1 the z-score was inactive: 1.67.
For GGCGAAGUGGUUAAAAGUGTT against Ifnar1, the z-score was inactive: -0.285.
For GGUGCUAUUUACCAAACUCTT against Btg2, the z-score was inactive: 0.997.
For GGUAUUGACAGAAUGAGUUTT against Zfp109, the z-score was inactive: -0.89.
With GGUUUGUUAUGCUAUUGUATT against Defcr4 the z-score was inactive: 0.358.
With GCUUGAUUUUAUGUUAGCUTT against Hapln1 the z-score was inactive: -2.62.
With CGCAUUGAUUCAUUUAAUGTT against Abca8a the z-score was inactive: 0.898.
In the case of “GGGAUCACAUCUUAAGUAATT against 4933428M03Rik”, the z-score is reported as inactive: 0.0811.
For GGUACUGCUAAGCAAAGUCTT against Zdhhc3, the z-score was inactive: -0.0759.
For GGAGAAGAGCCUUCUCAAGTT against Sfrs4, the z-score was inactive: -0.351.
With CGGAAAAAUUCGGAAAGAATT against Tulp4 the z-score was inactive: -1.11.
With GCCUCUUUAUAAUAUAAGGTT against Rnf134 the z-score was inactive: -0.745.
With GGUGGAGGUCUGGUUUAAGTT against Gsc the z-score was inactive: 2.48.
In the case of “GGAAAUUUUGGAGAUGAUATT against 5730444A13Rik”, the z-score is reported as inactive: -0.496.
With GGAGUUUGACAAAGAGAAATT against Mlc1 the z-score was inactive: -0.165.
With CCGGAUCCAGAAUACAUUATT against Laf4 the z-score was inactive: 1.41.
For GGUGGCUCAAUUCUUGAAGTT against Tagln, the z-score was inactive: -0.445.
For “CCAAACAGUUCACAAUUCCTT against 1500003O22Rik”, the z-score was inactive: 0.363.
In the case of “CCUCAAGGAUAAUUAUUACTT against 4933434I20Rik”, the z-score is reported as inactive: 0.375.
In the case of GCCCUUGCCUCUGUAGAUGTT against Olfr857, the z-score is reported as inactive: 1.36.
In the case of GGAAAGCAAAAGUUUACAATT against Mdh1b, the z-score is reported as inactive: 1.29.
With GGCCGUGUGCAUCUUUGUGTT against Gpr20 the z-score was inactive: 1.38.
In the case of GGAAAUCUUAACUAGUAUGTT against Nutf2, the z-score is reported as inactive: -0.269.
For GGAUGUGGCUGAAUCUCUGTT against Zfp99, the z-score was inactive: 0.191.
In the case of AGGCACGUCUGAUUGCAUGTT against LOC432823, the z-score is reported as inactive: 1.03.
For GGAUCGAACUGAGAACUUUTT against Leng4, the z-score was inactive: 0.253.
In the case of GGAGUUUCAACAAAGAAGCTT against Dock3, the z-score is reported as inactive: 0.783.
For GGAAGGAUCAUUCUGUGAATT against Ly6h, the z-score was inactive: -1.74.
For GCCGGAGUUAUGAAAGGAGTT against Fusip1, the z-score was inactive: 0.619.
For CUGCUAUGACGACAACUACTT against Ngfg, the z-score was inactive: 0.254.
For GGUCACAAUGAAGGUCAAGTT against Plxdc1, the z-score was inactive: -0.326.
For “GCGGCUAAAUAUCAACACUTT against 2310005P05Rik”, the z-score was inactive: 1.7.
In the case of GGGAUCUAAGAAAGCCAUCTT against Hist1h2bb, the z-score is reported as inactive: -0.782.
For GUACGGCAACAUGACCCAGTT against Ii, the z-score was inactive: 1.25.
With GGACAUGUGAAGAUAAACGTT against Mug1 the z-score was inactive: -0.178.
With CCGGAAAAAGGAUAAGACATT against Rgs6 the z-score was inactive: 0.495.
In the case of GGGCCAAAUUUGAAUCCCUTT against Dscr1, the z-score is reported as inactive: 0.608.
In the case of GCUAUUGGAUGAGCGAUUGTT against Crlf3, the z-score is reported as inactive: -0.73.
With “GGAUUCAGAAUCCAUCUCUTT against 5530600A18Rik” the z-score was inactive: 1.72.
With GCAUGCAUGGUACAAUUUUTT against Olfr1166 the z-score was inactive: -0.964.
In the case of “GGACAAGGAAAAGUCUUUATT against 2810403B08Rik”, the z-score is reported as inactive: -0.991.
For GGUAGUGGACAGUUUUGACTT against Mrpl55, the z-score was inactive: 1.83.
In the case of GGCUUCUUUUGCUACACCUTT against Olfr729, the z-score is reported as inactive: -0.7.
For CCUGGAACUUGUCUUUUUUTT against Olfr1388, the z-score was inactive: 1.25.
For CCAUCAUUGUUCUUGCAAGTT against Olfr1387, the z-score was inactive: 0.403.
In the case of CCACUUUAGCUCCUUUAAGTT against BC037432, the z-score is reported as inactive: 0.0326.
For “GGUUUUCAAAGUCUUUUACTT against 9130017A15Rik”, the z-score was inactive: -0.131.
For GCCGAUGGAUUCCUCUCAUTT against Rhot1, the z-score was inactive: 1.87.
